These results are taken from PubChem BioAssay AID2685 (National Center for Advancing Translational Sciences (NCATS), 2010).

This experiment in a line: qHTS Assay for Lipid Storage Modulators in Drosophila S3 Cells.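 For cell number change: cells counted by Cell Tracker Red CMTPX staining in the red channel.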 As to conditions: BODIPY lipid droplet fluorescence, 18-24 h; for cell number change: measured here: cell count max response, cells fed with added oleic acid. In short, it runs like this: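 Drosophila S3 cells got compounds at several concentrations plus oleic acid (400 uM solution). Laser-scanning cytometry with 488 nm excitation read lipid droplets at 500-530 nm and cells at 575-640 nm. Percent activity was relative to 20 uM Triacsin C.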
On the technique in general: qHTS replaces the single test concentration by a dilution series.

The mark [1] stands for this setting: measured here: cell number channel AC50, cells fed with added oleic acid.
Setting [2] is: measured here: lipid fluorescence (Fed channel) AC50, cells fed with added oleic acid.

Molecules are shown by their SMILES. This is one part of the list. The main result of the screen is listed elsewhere. These columns were measured beside it and carry no call. Compounds called inactive in the main read-out are mostly missing here. The note in brackets gives the kind of curve behind each potency; many fits are weak.

Take `COc1cc(NC(=O)CSc2nnc3ccccn23)cc(OC)c1`: the cell number change stood at 2.43%.

Turning to `Cc1c(OC(C)C(=O)NCCCn2ccnc2)ccc2c3c(c(=O)oc12)CCC3` (configuration not stated), the cell number change was -2.12%.

On to `COc1ccc(NC(=O)NNC(=O)C(C)Oc2ccc(C(C)C)cc2)c(OC)c1` (configuration not stated), for which the cell number change was 29.2%. In addition, under setting [1], the AC50 (usually the concentration giving half of the maximal activity seen) is 2.31 µM [rising, full curve, poor fit]. Also, the half-maximal activity concentration (AC50) under setting [2] was 3.66 µM [falling, partial curve].

On to `CC1CCCN(C(=O)CSc2nc3ncccc3[nH]2)C1` (configuration not stated), for which the cell number change was -18.8%. Under setting [2], the AC50 is 18.4 µM [falling, single point]. Take `CC(NC(=O)CSc1nc2ccccc2c(=O)n1CCCO)c1ccccc1` (configuration not stated): the concentration at half-maximal activity (AC50) under setting [2] is 0.291 µM [rising, partial curve, poor fit]. As for `O=C(NNC(=O)c1ccco1)c1ccc(NS(=O)(=O)c2cccs2)cc1`, the cell number change worked out at 3.74%. In addition, the AC50 under setting [2] was 5.17 µM [rising, full curve]. For `O=C(Nc1ccccc1)C1CCN(C(=O)c2ccc(Br)cc2)CC1`, the cell number change was 7.43%. The half-maximal activity concentration (AC50) under setting [2] was 29.1 µM [falling, single point]. `C1CCc2c(nc3nnnn3c2NC2CCCC2)C1`: the cell number change is -2.82%. Consider `CCOCCCNCC(=O)Nc1ccc(S(=O)(=O)NC(C)CC)cc1` (configuration not stated), for which the cell number change is -23.2%. Besides, the AC50 under setting [2] is 0.291 µM [falling, full curve].

In the case of `CCc1cc(C(=O)O)c(NC(=O)/C=C/c2ccc(OC)c(OC)c2)s1`, the cell number change is -29.5%. For the same compound, under setting [2], the AC50 was 6.51 µM [falling, single point]. On to `Cc1ccc(NC(=O)C2CCN(S(=O)(=O)c3cccnc3)CC2)cc1C`, for which the AC50 under setting [2] is 20.6 µM [falling, single point]. For `CCOC(=O)N1CCN(CC(O)COC2CC(C)CCC2C(C)C)CC1` (configuration not stated), the cell number change was determined as 17.2%. Besides, the concentration at half-maximal activity (AC50) under setting [2] is 6.51 µM [falling, partial curve]. Take `Cc1ccc(CN(Cc2cc3cccc(C)c3[nH]c2=O)C(=O)N(C)C)cc1`: the cell number change is 9.13%. For the same compound, the AC50 under setting [2] is 0.517 µM [rising, full curve]. Turning to `CCN(C(=O)COc1cc(=O)n(CC)c2ccccc12)c1cc(Cl)ccc1OC`, the cell number change is -6.73%. Under setting [2], the AC50 was 5.17 µM [rising, partial curve]. Consider `Cc1nc(C)c(-c2ccc(SCC(=O)Nc3ccccc3)nn2)s1`, for which the cell number change is -13.9%. Also, the concentration at half-maximal activity (AC50) under setting [2] was 0.326 µM [rising, full curve, poor fit]. Regarding `C=CCn1c(COc2ccccc2F)nnc1SCC(=O)N1CC(=O)Nc2ccccc21`, the AC50 is 2.06 µM [rising, partial curve] under setting [1] and 2.91 µM [rising, partial curve] under setting [2]. With `Cc1ccc(OCC(=O)NC2=NCCS2)cc1`, the cell number change worked out at 12.2%. Also, the concentration at half-maximal activity (AC50) under setting [2] was 16.4 µM [falling, single point]. Regarding `Cc1ccc(C2=CC(=O)C[C@H](c3ccc(F)cc3)C2)cc1`, the cell number change is -32.7%. In addition, the AC50 under setting [1] is 14.6 µM [falling, partial curve, poor fit]. Moreover, the AC50 under setting [2] was 16.4 µM [rising, single point].

For the compound `O=C(NNC(=O)c1cccs1)c1ccc(S(=O)(=O)N2CCCCC2)cc1`, the concentration at half-maximal activity (AC50) reads like this: under setting [1], 0.13 µM [rising, full curve, poor fit]; under setting [2], 0.00411 µM [falling, full curve, poor fit]. For `Cc1ccc(Nc2nc(C(=O)NCCCN3CCOCC3)cs2)cc1`, the cell number change was -5.4%. The AC50 under setting [2] is 0.082 µM [rising, full curve, poor fit]. In the case of `COc1ccc(CCN2CC(C(=O)OCC(=O)N(C)Cc3ccccc3)CC2=O)cc1OC` (configuration not stated), the cell number change is -23%. For the same compound, the AC50 under setting [2] is 29.1 µM [rising, single point].

For the compound `Cc1ccc(NC2=NCC(=O)N2Cc2ccc3c(c2)OCO3)c(C)c1`, the AC50 by setting is: under setting [1], 0.366 µM [rising, partial curve]; under setting [2], 0.231 µM [rising, full curve]. Consider `C=CCSc1nc2ccccc2n1C(=O)/C=C/c1cc(OC)c(OC)c(OC)c1`, for which the cell number change is -42.1%. The AC50 under setting [1] was 7.31 µM [falling, partial curve]. Also, the AC50 under setting [2] is 16.4 µM [falling, partial curve].

Consider `O=C(NNc1ccc(-c2csnn2)cc1)c1ccccc1C(F)(F)F`, for which the cell number change worked out at 14.5%. Besides, under setting [1], the AC50 is 3.66 µM [falling, single point]. Under setting [2], the AC50 was 4.11 µM [falling, single point]. For `COc1cc(SC)ccc1C(=O)Nc1cccc(C2OCCCO2)c1`, the cell number change is -3.81%.

For the compound `O=C(N/N=C/c1cccc(O)c1)c1ccc(COc2cccc3cccnc23)cc1`, the cell number change is -7.73%. The concentration at half-maximal activity (AC50) under setting [2] is 0.231 µM [rising, single point]. Take `C/C(CC(=O)Nc1ccccc1C#N)=N\NC(=O)c1ccncc1`: the cell number change was -12.8%. For the same compound, the half-maximal activity concentration (AC50) under setting [2] is 6.51 µM [falling, single point]. On to `Cc1ccccc1OCCCC(=O)Nc1nccs1`, for which the cell number change is -4.01%. In addition, the concentration at half-maximal activity (AC50) under setting [2] is 29.1 µM [rising, single point]. Consider `O=C(c1ccc(Cl)cc1)[C@@H]1[C@@H]2C(=O)N(c3cccc4ccccc34)C(=O)[C@@H]2C2c3ccccc3C=NN21` (some centres not stated), for which the cell number change is -15.3%. Further, the AC50 under setting [2] was 18.4 µM [rising, single point]. For `O=C(NCCCN1CCCCCC1)c1cc2c(=O)oc3ccccc3c2s1`, the cell number change is -5.56%. As for `O=C(NCCc1ccc(F)cc1)c1ccc(Cl)c(S(=O)(=O)N2CCOCC2)c1`, the cell number change was -28.2%. Besides, under setting [2], the half-maximal activity concentration (AC50) was 7.31 µM [falling, partial curve]. For the compound `CCOC(=O)C1(P(=O)(c2ccccc2)c2ccccc2)CCC1`, the cell number change is 2.03%. Also, the AC50 under setting [1] was 2.06 µM [falling, partial curve, poor fit]. The AC50 under setting [2] was 0.58 µM [falling, single point].

As to `CCC(=O)N1CCCc2cc(S(=O)(=O)N3CCN(C4CCCCC4)CC3)ccc21`, the half-maximal activity concentration (AC50) under setting [2] was 6.51 µM [rising, single point]. In the case of `COc1ccccc1CNC(=O)C(NC(=O)c1ccccc1C)C(C)C` (configuration not stated), the cell number change worked out at 6.85%. As for `FC(F)(F)c1cc(-c2ccco2)nc(N2CCOCC2)n1`, the cell number change is -17.9%. Moreover, under setting [2], the AC50 is 2.06 µM [rising, partial curve, poor fit]. For `CCOc1ccc(Cl)cc1S(=O)(=O)N1CCC(C(=O)NC2CC2)CC1`, the cell number change was determined as 18.1%.

Consider `COc1cc(-c2cc(C(=O)Nc3cccc(S(=O)(=O)N(C)C)c3)c3ccccc3n2)cc(OC)c1OC`, for which the cell number change is -1.32%. The AC50 under setting [2] was 1.12 µM [falling, partial curve]. Consider `O=C(O)COc1ccc(NC(=O)c2ccc3c(c2)C(=O)N(C2CCCCC2)C3=O)cc1`, for which the cell number change was -0.54%. Besides, the half-maximal activity concentration (AC50) under setting [2] is 18.4 µM [falling, single point]. Take `Cc1ccc(S(=O)(=O)N2CCN(Cc3cc(C(C)C)ccc3O)CC2)cc1`: the cell number change is -30.1%. Also, the AC50 under setting [1] was 32.6 µM [falling, single point]. Under setting [2], the AC50 was 25.9 µM [falling, single point]. In the case of `NC(=O)c1ccc(-c2ncc(-c3ccccc3)o2)cc1`, the cell number change is -19.8%. The half-maximal activity concentration (AC50) under setting [1] is 0.0291 µM [falling, full curve, poor fit]. For `c1ccc(-c2csc3ncnc(NCCCN4CCOCC4)c23)cc1`, the cell number change is -21.5%. For the same compound, the half-maximal activity concentration (AC50) under setting [2] was 14.6 µM [falling, single point]. As for `Cc1nnc(NC2(C(F)(F)F)C(=O)Nc3c2c(=O)n(C)c(=O)n3C)s1` (configuration not stated), the cell number change was -124%. Under setting [1], the AC50 was 8.2 µM [falling, partial curve]. The AC50 under setting [2] was 29.1 µM [falling, single point]. In the case of `COc1ccc(CN(C(=O)CN2C(=O)NC3(CCC(C)CC3)C2=O)C(C)Cc2cccs2)cc1` (configuration not stated), the cell number change was -4.4%. In addition, under setting [2], the concentration at half-maximal activity (AC50) is 0.92 µM [falling, single point]. For `C=CCNC(=S)N/N=C/c1ccc(C(F)(F)F)cc1`, the cell number change was -27.9%. For the same compound, under setting [1], the concentration at half-maximal activity (AC50) was 0.82 µM [rising, single point]. Moreover, the AC50 under setting [2] was 29.1 µM [falling, single point]. As for `CC(C)(C)OC(=O)NCCC(=O)Oc1ccc2ccc(=O)oc2c1`, the cell number change is -10.9%. Besides, under setting [1], the AC50 is 0.0259 µM [falling, full curve, poor fit]. The AC50 under setting [2] is 0.0291 µM [falling, full curve]. For `O=C1C/C(=C\c2c(F)cccc2Cl)N2CCC1CC2`, the cell number change was -24.3%. The AC50 under setting [1] is 0.13 µM [falling, full curve]. Moreover, the concentration at half-maximal activity (AC50) under setting [2] is 3.66 µM [falling, single point]. As to `O=C(CNC(=S)N(CCCN1CCOCC1)Cc1cccs1)NCc1ccc(Cl)cc1`, the AC50 under setting [2] is 1.84 µM [falling, full curve, poor fit].

Regarding `Cc1[nH]nc2c1C(c1ccc3c(c1)OCO3)C(C#N)=C(N)O2` (configuration not stated), the AC50 is 4.61 µM [rising, single point] under setting [1] and 6.51 µM [rising, single point] under setting [2]. For `CCC(=O)N1CCN=C1SCc1ccccc1Cl`, the cell number change is -9.4%. Same read-out and setting: the value for `C=CCn1c(=O)c2c(nc3n2CCCN3CCc2ccc(OC)c(OC)c2)n(C)c1=O` was -7.8%. Take `COc1ccc(C2C(C(=O)c3ccc(C)o3)=C(O)C(=O)N2Cc2cccnc2)cc1` (configuration not stated): the cell number change was -5.71%. Moreover, under setting [2], the AC50 is 6.51 µM [falling, single point]. Turning to `CCc1nnc2sc(-c3ccc(NC(=O)c4ccco4)cc3)nn12`, the cell number change is -42.1%. In addition, the concentration at half-maximal activity (AC50) under setting [1] is 13 µM [falling, partial curve]. Moreover, the AC50 under setting [2] is 8.2 µM [falling, partial curve]. For `Cc1ccc(-c2c[n+](CC(=O)Nc3cc(=O)n(C)c(=O)n3C)c3n2CCC3)cc1`, the cell number change was -2.9%. Further, the concentration at half-maximal activity (AC50) under setting [1] is 5.8 µM [falling, single point].

Take `O=C(NCC1CCCO1)c1ccc2c(=O)n(CC3CCCO3)c(=S)[nH]c2c1` (configuration not stated): the cell number change stood at 10.4%. Also, the AC50 under setting [2] was 6.51 µM [rising, single point]. `CCOC(=O)CCSCC(=O)Nc1cc(C)on1`: the half-maximal activity concentration (AC50) under setting [2] was 6.51 µM [rising, single point]. Take `Cc1ccc(-c2csc(N3CCC(C(N)=O)CC3)n2)cc1`: the cell number change was 8.02%. In addition, under setting [1], the AC50 was 1.16 µM [rising, single point].

For `Cn1c2ccccc2c(=O)c2c(=O)n(Cc3ccccc3)c(-c3ccc(F)cc3)nc21`, the cell number change was 11.8%. In the case of `O=C(CSc1ncn[nH]1)Nc1ccc(Cl)c(Cl)c1`, under setting [2], the AC50 is 10.3 µM [rising, partial curve]. For the compound `O=C(OCc1ccc(Br)cc1)c1cccc(-c2nnc(-c3ccccc3)o2)c1`, under setting [2], the concentration at half-maximal activity (AC50) is 29.1 µM [rising, single point].
